According to patent publication US7160887B1, “Aromatic amine derivatives, their production and use” (Takeda Pharmaceutical Company Limited, priority 1998, dated 2007):
Structures can show the parent of a compound that is named as a salt. Some entries share one result that the patent states for a list of compounds. At least one compound was matched to its structure with a doubt left.

Molecular target: human somatostatin receptor
Assay: 125I-somatostatin binding inhibition
Conditions: 50% binding inhibition concentration of 125I-somatostatin binding; human somatostatin receptor-containing CHO cell membrane fraction; 25° C., 60 minutes; read-out: reactivity (IC50, μM) on the human somatostatin receptor

Compound	IC50
N-[2-(3-aminomethylphenoxy)phenyl]-N-(4-phenoxybenzyl)-N′-(3,4-difluorobenzyl)succinamide trifluoroacetate [Example 31]	≤ 10 µM
N-[2-(3-aminomethylphenoxy)phenyl]-N-(4-tert-butylbenzyl)-N′-(4-phenylpiperazino)succinamide trifluoroacetate [Example 51]	≤ 10 µM
N-[2-(3-aminomethylphenoxy)phenyl]-N-(3,4,5-trimethoxybenzyl)-N′-(2-fluorobenzyl)succinamide trifluoroacetate [Example 89]	≤ 10 µM
N-[2-(3-aminomethylphenoxy)phenyl]-N-(4-cyanobenzyl)-N′-(4-phenylpiperazino)succinamide trifluoroacetate [Example 87]	≤ 10 µM
N-[2-(3-aminomethylphenoxy)phenyl]-N-(3,4,5-trimethoxybenzyl)-N′-(4-phenylpiperazino)succinamide trifluoroacetate [Example 99]	≤ 10 µM
N-[2-(3-aminomethylphenoxy)phenyl]-N-(4-phenoxybenzyl)-N′-(4-phenylpiperazino)succinamide trifluoroacetate [Example 39]	≤ 10 µM
N-[2-(3-aminomethylphenoxy)phenyl]-N-(4-acetamidobenzyl)-N′-(4-phenylpiperazino)succinamide trifluoroacetate [Example 75]	≤ 10 µM
N-[2-(3-aminomethylphenoxy)phenyl]-N-(1-naphthylmethyl)-N′-(3-pyridylmethyl)succinamide trifluoroacetate [Example 61]	≤ 10 µM
N-[2-(3-aminomethylphenoxy)phenyl]-N-(2-fluorenylmethyl)-N′-(4-phenylpiperazino)succinamide trifluoroacetate [Example 111]	≤ 10 µM
N-[2-(3-aminomethylphenoxy)phenyl]-N-benzyl-N′-(4-phenylpiperazino)succinamide trifluoroacetate [Example 27]	≤ 10 µM
N-[2-(3-aminomethylphenoxy)phenyl]-N-(1-naphthylmethyl)-N′-(4-phenylpiperazino)succinamide trifluoroacetate [Example 63]	≤ 10 µM
N-[2-(3-aminomethylphenoxy)phenyl]-N-(4-acetamidobenzyl)-N′-(1-indanyl)succinamide trifluoroacetate [Example 72]	≤ 10 µM
CC(C)(C)c1ccc(CN(C(=O)CCC(=O)NCCc2ccc(Cl)cc2Cl)c2ccccc2Oc2cccc(CN)c2)cc1 [Example 46, N-[2-(3-aminomethylphenoxy)phenyl]-N-(4-tert-butylbenzyl)-N′-[2-(2,4-dichlorophenethyl)]succinamide trifluoroacetate]	≤ 10 µM
